Laboratory results as given in PMC11898277.
Results are given in words; binding and its absence hold for the method and conditions named. Binding seen in cells or lysates may run through a third protein. Here binding means that the protein was enriched with, or labelled near, the bait; the list need not be complete.

By UniProt entry, the sequences of proteins in these tests, tags left out. Residues count along the entry.
UniProt P29595, residues 1-76: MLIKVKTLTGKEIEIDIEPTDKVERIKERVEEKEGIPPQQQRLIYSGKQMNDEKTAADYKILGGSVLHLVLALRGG
UniProt Q8VE73: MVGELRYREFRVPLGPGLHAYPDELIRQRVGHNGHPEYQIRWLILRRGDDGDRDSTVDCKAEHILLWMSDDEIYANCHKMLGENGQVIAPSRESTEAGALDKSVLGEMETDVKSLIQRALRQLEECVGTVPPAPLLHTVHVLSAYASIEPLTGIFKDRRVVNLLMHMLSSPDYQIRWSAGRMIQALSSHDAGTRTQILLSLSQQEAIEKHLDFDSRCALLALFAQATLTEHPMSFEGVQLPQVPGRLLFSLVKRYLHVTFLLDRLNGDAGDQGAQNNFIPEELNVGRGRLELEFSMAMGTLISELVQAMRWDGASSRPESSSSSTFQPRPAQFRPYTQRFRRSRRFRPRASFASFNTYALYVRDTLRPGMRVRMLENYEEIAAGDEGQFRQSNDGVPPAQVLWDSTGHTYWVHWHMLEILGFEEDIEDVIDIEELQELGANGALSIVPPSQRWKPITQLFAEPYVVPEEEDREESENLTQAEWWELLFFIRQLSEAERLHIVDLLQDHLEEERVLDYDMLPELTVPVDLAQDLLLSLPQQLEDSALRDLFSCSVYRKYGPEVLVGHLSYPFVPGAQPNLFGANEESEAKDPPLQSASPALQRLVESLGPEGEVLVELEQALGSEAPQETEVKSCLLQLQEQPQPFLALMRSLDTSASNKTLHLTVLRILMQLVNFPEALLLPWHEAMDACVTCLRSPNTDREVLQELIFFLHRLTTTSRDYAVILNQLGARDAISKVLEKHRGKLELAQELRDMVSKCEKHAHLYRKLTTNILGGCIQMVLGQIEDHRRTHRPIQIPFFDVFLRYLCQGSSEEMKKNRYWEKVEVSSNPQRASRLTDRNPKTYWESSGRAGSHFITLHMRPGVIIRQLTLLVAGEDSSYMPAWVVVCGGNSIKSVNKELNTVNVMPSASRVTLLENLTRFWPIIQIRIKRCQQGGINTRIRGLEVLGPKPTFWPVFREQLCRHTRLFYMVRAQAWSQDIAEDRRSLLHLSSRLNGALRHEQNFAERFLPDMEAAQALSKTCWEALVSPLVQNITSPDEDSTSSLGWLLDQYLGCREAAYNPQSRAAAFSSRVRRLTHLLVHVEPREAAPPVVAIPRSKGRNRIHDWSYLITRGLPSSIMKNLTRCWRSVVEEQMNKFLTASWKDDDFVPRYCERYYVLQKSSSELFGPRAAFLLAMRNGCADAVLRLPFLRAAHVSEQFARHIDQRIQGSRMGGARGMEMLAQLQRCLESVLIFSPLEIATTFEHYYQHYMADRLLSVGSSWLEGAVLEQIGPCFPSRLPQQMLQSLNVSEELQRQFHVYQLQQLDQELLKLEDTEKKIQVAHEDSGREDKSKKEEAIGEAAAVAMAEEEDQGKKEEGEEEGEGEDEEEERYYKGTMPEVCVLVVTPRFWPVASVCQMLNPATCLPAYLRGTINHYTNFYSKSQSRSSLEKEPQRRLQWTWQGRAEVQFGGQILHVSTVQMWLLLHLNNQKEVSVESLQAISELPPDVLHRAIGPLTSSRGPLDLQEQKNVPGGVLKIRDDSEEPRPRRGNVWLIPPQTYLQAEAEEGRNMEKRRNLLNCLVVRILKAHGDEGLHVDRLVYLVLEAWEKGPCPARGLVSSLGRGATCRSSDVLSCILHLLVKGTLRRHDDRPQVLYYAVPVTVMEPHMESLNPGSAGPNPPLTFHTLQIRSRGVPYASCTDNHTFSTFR
UniProt Q80TT8: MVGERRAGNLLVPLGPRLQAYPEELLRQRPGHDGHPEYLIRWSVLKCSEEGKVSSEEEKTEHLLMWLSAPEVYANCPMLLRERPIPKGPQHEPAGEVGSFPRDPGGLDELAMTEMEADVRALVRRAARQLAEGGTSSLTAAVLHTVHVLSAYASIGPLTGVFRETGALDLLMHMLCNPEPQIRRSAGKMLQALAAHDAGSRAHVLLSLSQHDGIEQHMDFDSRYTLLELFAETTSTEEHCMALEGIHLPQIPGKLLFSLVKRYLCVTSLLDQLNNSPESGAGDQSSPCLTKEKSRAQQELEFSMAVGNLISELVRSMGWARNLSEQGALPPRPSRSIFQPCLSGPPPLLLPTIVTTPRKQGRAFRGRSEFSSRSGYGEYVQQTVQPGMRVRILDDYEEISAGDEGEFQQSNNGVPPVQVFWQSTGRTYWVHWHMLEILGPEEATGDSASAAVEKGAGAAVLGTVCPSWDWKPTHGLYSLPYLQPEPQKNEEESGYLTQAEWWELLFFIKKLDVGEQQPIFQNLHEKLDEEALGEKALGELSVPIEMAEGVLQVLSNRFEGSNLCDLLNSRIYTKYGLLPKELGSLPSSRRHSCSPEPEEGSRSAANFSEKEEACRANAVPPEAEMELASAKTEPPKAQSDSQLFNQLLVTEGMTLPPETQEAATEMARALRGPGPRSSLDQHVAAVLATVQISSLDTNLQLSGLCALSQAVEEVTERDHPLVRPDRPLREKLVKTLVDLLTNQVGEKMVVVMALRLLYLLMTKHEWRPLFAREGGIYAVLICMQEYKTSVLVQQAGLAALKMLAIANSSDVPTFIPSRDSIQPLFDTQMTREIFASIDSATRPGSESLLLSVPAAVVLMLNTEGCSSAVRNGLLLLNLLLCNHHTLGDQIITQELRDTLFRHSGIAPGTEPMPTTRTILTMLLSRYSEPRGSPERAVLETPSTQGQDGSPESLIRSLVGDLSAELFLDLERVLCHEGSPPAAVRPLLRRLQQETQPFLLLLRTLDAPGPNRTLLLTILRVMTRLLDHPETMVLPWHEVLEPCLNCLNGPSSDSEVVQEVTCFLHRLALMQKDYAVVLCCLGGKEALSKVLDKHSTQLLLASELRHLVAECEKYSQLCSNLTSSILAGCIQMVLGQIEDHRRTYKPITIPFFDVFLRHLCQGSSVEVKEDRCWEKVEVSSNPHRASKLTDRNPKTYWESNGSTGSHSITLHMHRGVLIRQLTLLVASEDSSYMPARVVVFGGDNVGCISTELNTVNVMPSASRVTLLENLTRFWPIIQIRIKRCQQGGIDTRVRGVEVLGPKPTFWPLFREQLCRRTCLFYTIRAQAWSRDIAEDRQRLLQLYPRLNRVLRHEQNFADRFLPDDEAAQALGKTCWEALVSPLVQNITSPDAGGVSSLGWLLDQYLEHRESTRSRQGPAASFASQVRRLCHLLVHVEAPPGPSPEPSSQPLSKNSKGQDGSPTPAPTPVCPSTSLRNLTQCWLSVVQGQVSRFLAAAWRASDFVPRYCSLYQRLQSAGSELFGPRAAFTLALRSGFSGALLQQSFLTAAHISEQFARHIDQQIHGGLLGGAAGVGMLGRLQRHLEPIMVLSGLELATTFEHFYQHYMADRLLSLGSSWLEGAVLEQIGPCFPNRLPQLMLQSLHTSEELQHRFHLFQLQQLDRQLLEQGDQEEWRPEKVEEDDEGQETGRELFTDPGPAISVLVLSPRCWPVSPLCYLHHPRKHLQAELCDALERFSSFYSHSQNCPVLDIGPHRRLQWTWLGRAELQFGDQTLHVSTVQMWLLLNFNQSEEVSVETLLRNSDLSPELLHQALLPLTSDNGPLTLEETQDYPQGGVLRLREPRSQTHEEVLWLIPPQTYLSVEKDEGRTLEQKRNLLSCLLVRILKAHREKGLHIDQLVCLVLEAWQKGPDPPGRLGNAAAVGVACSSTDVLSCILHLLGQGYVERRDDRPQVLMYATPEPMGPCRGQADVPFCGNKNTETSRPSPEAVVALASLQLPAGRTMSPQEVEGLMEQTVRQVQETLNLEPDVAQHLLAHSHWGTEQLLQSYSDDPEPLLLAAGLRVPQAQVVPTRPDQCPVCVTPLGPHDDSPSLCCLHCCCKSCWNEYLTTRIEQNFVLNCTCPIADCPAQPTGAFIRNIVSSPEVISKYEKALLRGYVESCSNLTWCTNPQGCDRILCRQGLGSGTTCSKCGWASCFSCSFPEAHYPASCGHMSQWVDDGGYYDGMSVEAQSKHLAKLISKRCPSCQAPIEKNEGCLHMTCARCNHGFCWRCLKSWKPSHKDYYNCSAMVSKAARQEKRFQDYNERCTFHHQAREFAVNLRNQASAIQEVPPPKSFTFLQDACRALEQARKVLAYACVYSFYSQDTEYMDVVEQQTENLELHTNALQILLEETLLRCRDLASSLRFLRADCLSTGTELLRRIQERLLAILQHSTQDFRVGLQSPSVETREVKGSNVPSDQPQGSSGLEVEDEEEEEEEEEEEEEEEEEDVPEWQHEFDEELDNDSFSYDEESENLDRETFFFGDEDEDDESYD

Target: Neural precursor cell-expressed developmentally down-regulated 8 (NEDD8) (mouse (endogenous in testis)) (UniProt P29595)
Test: affinity purification with mass spectrometry; lysate of 16 dpp mouse testes in IP lysis buffer; NEDD8 antibody or non-specific IgG, 3 h at 4 C, magnetic Protein A beads overnight at 4 C; LC-MS/MS of the precipitate

| Substance | binding |
| --- | --- |
| CUL7 (from UniProt Q8VE73 1-1689) | binds |
| CUL9 (from UniProt Q80TT8 1-2530) | binds |
